Source: PubChem BioAssay AID1259284 (Sanger Institute, 2017)
Here is a random part of 794 reagents. 16 of them (2%) were called active. 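Calls concern knock-down without drug only; drug synergy was judged apart, with scores above 0.15 taken as synergy.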 Viability is capped at 1. No sequences are given here. The record does not give: the amount of reagent, the time to read-out.

Aim: 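Kinase knock-downs that cut colorectal cancer cell growth alone or with targeted drugs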 (primary screen)
Cells: SW48 human colorectal cancer cells
Reagents: siRNA pool against human genes
Conditions: anchor drug BYL719 at 1 µM, cetuximab at 5 µg/ml or trametinib at 10 nM, or DMSO vehicle alone
Measured: 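Cell viability relative to non-targeting pool wells, replicate mean, with robust z-scores and drug synergy scores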
Scale: robust z-score, no drug: higher = more cells survive knock-down; viability, no drug: higher = more viable cells; synergy with BYL719 and synergy with trametinib and synergy with cetuximab: higher = stronger combined killing with drug
Hit rule: 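Called essential when the robust z-score of viability without drug falls below -3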
Calls: active = essential without drug; inactive = no change without drug

target | robust z-score, no drug | viability, no drug (fraction of control) | synergy with BYL719 | synergy with trametinib | synergy with cetuximab | Call
CIT (citron rho-interacting serine/threonine kinase) | -6.94 | 0.368 | -0.0634 | -0.0829 | -0.0429 | active
IRAK4 (interleukin 1 receptor associated kinase 4) | 0.426 | 1 | -0.13 | -0.0144 | -0.059 | inactive
KCNH2 (potassium voltage-gated channel subfamily H member 2) | -0.0684 | 0.958 | -0.0796 | 0.0956 | 0.00839 | inactive
CSNK2B (casein kinase 2 beta) | 0.426 | 1 | -0.169 | -0.033 | 0.0159 | inactive
RYK (receptor like tyrosine kinase) | 0.426 | 1 | -0.365 | -0.101 | -0.165 | inactive
EIF2AK4 (eukaryotic translation initiation factor 2 alpha kinase 4) | 0.366 | 0.995 | -0.278 | -0.134 | -0.109 | inactive
DMPK (DM1 protein kinase) | 0.426 | 1 | 0.0685 | 0.0803 | 0.0782 | inactive
CALM3 (calmodulin 3) | -0.0219 | 0.962 | -0.00986 | 0.156 | 0.0614 | inactive
JAK3 (Janus kinase 3) | 0.426 | 1 | -0.245 | -0.0879 | -0.165 | inactive
PXK (PX domain containing serine/threonine kinase like) | 0.426 | 1 | -0.0877 | -0.0766 | -0.0264 | inactive
ITPKC (inositol-trisphosphate 3-kinase C) | 0.426 | 1 | -0.014 | 0.0304 | -0.0956 | inactive
TRIO (trio Rho guanine nucleotide exchange factor) | 0.0142 | 0.965 | -0.113 | -0.241 | -0.17 | inactive
AKT2 (AKT serine/threonine kinase 2) | -0.28 | 0.939 | -0.0393 | -0.0539 | -0.00949 | inactive
CAMKV (CaM kinase like vesicle associated) | 0.426 | 1 | -0.148 | -0.0218 | 0.00029 | inactive
FASTK (Fas activated serine/threonine kinase) | 0.00912 | 0.964 | -0.0291 | -0.0508 | 0.0372 | inactive
MARK2 (microtubule affinity regulating kinase 2) | -0.192 | 0.947 | -0.132 | -0.0964 | 0.0358 | inactive
CDK6 (cyclin dependent kinase 6) | 0.426 | 1 | -0.211 | -0.128 | -0.133 | inactive
CLK2 (CDC like kinase 2) | 0.426 | 1 | -0.367 | -0.252 | -0.165 | inactive
WEE1 (WEE1 G2 checkpoint kinase) | -0.805 | 0.894 | -0.0987 | -0.0184 | -0.0205 | inactive
STK17A (serine/threonine kinase 17a) | 0.426 | 1 | -0.0709 | -0.148 | -0.165 | inactive
